Measurements reported in patent publication US20240368605A1, “USE OF SPLICE SWITCHING OLIGONUCLEOTIDES FOR EXON SKIPPING-MEDIATED KNOCKDOWN OF PIM2” (INSTITUT NATIONAL DE LA SANTÉ ET DE LA RECHERCHE MÉDICALE, priority 2021, published 2024).
These are yes or no findings as the source states them, for the method shown. Some binding calls cover weakened binding; strength is not graded here.

Protein sequences, listed by entry. Tags and fused reporters are not part of them. Residues count along the entry.
UniProt P38936, residues 2-164: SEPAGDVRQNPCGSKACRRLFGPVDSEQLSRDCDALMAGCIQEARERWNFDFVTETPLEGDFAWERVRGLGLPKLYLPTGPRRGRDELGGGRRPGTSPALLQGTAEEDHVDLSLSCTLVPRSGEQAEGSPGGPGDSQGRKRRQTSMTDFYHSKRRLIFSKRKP

Tests used:
Caspase 3 (human) [1] = target: T1, Caspase 3 (human) (UniProt P42574); assay: immunoprecipitation from XG21 cells and PBs (data not shown)
T1 sequence (looked up): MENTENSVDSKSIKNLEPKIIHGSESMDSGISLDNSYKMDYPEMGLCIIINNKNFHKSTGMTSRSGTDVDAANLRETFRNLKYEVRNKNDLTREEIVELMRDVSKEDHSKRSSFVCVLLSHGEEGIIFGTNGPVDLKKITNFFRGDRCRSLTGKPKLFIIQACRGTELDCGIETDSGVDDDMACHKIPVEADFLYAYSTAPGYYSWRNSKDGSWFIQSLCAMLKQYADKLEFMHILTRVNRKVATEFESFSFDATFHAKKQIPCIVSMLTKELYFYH

Caspase 3 (human) [2] = target: T1, Caspase 3 (human); assay: FRET in early plasma cells (ePCs) (data not shown)

p21^Cip1/WAF1 (from UniProt P38936 2-164)
binding (Caspase 3 (human) [1]): binds
binding (Caspase 3 (human) [2]): binds
